# Data taken from the supplement of paper PMC8728848.
# Some of the results follow.
# B1: Actd5 (Actinidia), P84527 (protein)
# chain: ISSCNGPCRDLNDCDGQLICIKGKCNDDPQVGTHICRGTTHSHQPGGCKPSGTLTCRGKSYPTYDCSPPVTSSTPAKLTNNDFSEGGDDGGPSECDESYHNNNERIVALSTGWYNGGSRCGKMIRITASNGKSVSAKVVDECDSRHGCDKEHAGQPPCRNNIVDGSNAVWSALGLDKNVGVVDITWSMA
# Columns and labels:
# Assay in all cases: glycan array binding signal (z-score within array); higher = stronger binding
# Conditions in all cases: glycan notation: IUPAC condensed, linker removed
# [1] = molecular target: GlcNAc(b1-3)Gal(b1-3)GalNAc
# Outline: (§1)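 Columns mapping to the same glycan were averaged after glycan names were converted to IUPAC-condensed notation. The data come from 3228 arrays in the Consortium for Functional Glycomics database, limited to those with an available protein sequence. Binding is reported as a within-array Z-score averaged across arrays of one protein sequence and across linkers.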
# GlcNAc(b1-3)Gal(b1-4)Glc = molecular target: GlcNAc(b1-3)Gal(b1-4)Glc
# Outline: as §1
# [2] = molecular target: GlcNAc(b1-3)Gal(b1-4)GlcNAc
# Outline: as §1
# [3] = molecular target: GlcNAc(b1-3)Gal(b1-4)GlcNAc(b1-2)Man(a1-3)[GlcNAc(b1-3)Gal(b1-4)GlcNAc(b1-2)Man(a1-6)]Man(b1-4)GlcNAc(b1-4)GlcNAc
# Outline: as §1
# [4] = molecular target: GlcNAc(b1-3)Gal(b1-4)GlcNAc(b1-2)Man(a1-3)[GlcNAc(b1-3)Gal(b1-4)GlcNAc(b1-2)Man(a1-6)]Man(b1-4)GlcNAc(b1-4)[Fuc(a1-6)]GlcNAc
# Outline: as §1
# [5] = molecular target: GlcNAc(b1-3)Gal(b1-4)GlcNAc(b1-2)[GlcNAc(b1-3)Gal(b1-4)GlcNAc(b1-6)]Man(a1-6)[GlcNAc(b1-3)Gal(b1-4)GlcNAc(b1-2)Man(a1-3)]Man(b1-4)GlcNAc(b1-4)GlcNAc
# Outline: as §1
# [6] = molecular target: GlcNAc(b1-3)Gal(b1-4)GlcNAc(b1-3)Gal(b1-4)GlcNAc
# Outline: as §1
# [7] = molecular target: GlcNAc(b1-3)Gal(b1-4)GlcNAc(b1-3)Gal(b1-4)GlcNAc(b1-2)Man(a1-3)[GlcNAc(b1-3)Gal(b1-4)GlcNAc(b1-3)Gal(b1-4)GlcNAc(b1-2)Man(a1-6)]Man(b1-4)GlcNAc(b1-4)GlcNAc
# Outline: as §1
# [8] = molecular target: GlcNAc(b1-3)Gal(b1-4)GlcNAc(b1-3)Gal(b1-4)GlcNAc(b1-2)Man(a1-3)[GlcNAc(b1-3)Gal(b1-4)GlcNAc(b1-3)Gal(b1-4)GlcNAc(b1-2)Man(a1-6)]Man(b1-4)GlcNAc(b1-4)[Fuc(a1-6)]GlcNAc
# Outline: as §1
# [9] = molecular target: GlcNAc(b1-3)Gal(b1-4)GlcNAc(b1-3)Gal(b1-4)GlcNAc(b1-2)[GlcNAc(b1-3)Gal(b1-4)GlcNAc(b1-3)Gal(b1-4)GlcNAc(b1-6)]Man(a1-6)[GlcNAc(b1-3)Gal(b1-4)GlcNAc(b1-3)Gal(b1-4)GlcNAc(b1-2)Man(a1-3)]Man(b1-4)GlcNAc(b1-4)[Fuc(a1-6)]GlcNAc
# Outline: as §1
# [10] = molecular target: GlcNAc(b1-3)Gal(b1-4)GlcNAc(b1-3)Gal(b1-4)GlcNAc(b1-3)Gal(b1-4)GlcNAc(b1-2)Man(a1-3)[GlcNAc(b1-3)Gal(b1-4)GlcNAc(b1-3)Gal(b1-4)GlcNAc(b1-3)Gal(b1-4)GlcNAc(b1-2)Man(a1-6)]Man(b1-4)GlcNAc(b1-4)GlcNAc
# Outline: as §1
# [11] = molecular target: GlcNAc(b1-3)Gal(b1-4)GlcNAc(b1-3)Gal(b1-4)GlcNAc(b1-3)Gal(b1-4)GlcNAc(b1-2)Man(a1-3)[GlcNAc(b1-3)Gal(b1-4)GlcNAc(b1-3)Gal(b1-4)GlcNAc(b1-3)Gal(b1-4)GlcNAc(b1-2)Man(a1-6)]Man(b1-4)GlcNAc(b1-4)[Fuc(a1-6)]GlcNAc
# Outline: as §1
# [12] = molecular target: GlcNAc(b1-3)Gal(b1-4)GlcNAc(b1-3)Gal(b1-4)GlcNAc(b1-3)Gal(b1-4)GlcNAc(b1-2)[GlcNAc(b1-3)Gal(b1-4)GlcNAc(b1-3)Gal(b1-4)GlcNAc(b1-3)Gal(b1-4)GlcNAc(b1-6)]Man(a1-6)[GlcNAc(b1-3)Gal(b1-4)GlcNAc(b1-3)Gal(b1-4)GlcNAc(b1-3)Gal(b1-4)GlcNAc(b1-2)Man(a1-3)]Man(b1-4)GlcNAc(b1-4)[Fuc(a1-6)]GlcNAc
# Outline: as §1
# [13] = molecular target: GlcNAc(b1-3)Gal(b1-4)GlcNAc(b1-3)Gal(b1-4)GlcNAc(b1-3)Gal(b1-4)GlcNAc(b1-3)Gal(b1-4)GlcNAc(b1-2)Man(a1-3)[GlcNAc(b1-3)Gal(b1-4)GlcNAc(b1-3)Gal(b1-4)GlcNAc(b1-3)Gal(b1-4)GlcNAc(b1-3)Gal(b1-4)GlcNAc(b1-2)Man(a1-6)]Man(b1-4)GlcNAc(b1-4)GlcNAc
# Outline: as §1
# [14] = molecular target: GlcNAc(b1-3)Gal(b1-4)GlcNAc(b1-3)Gal(b1-4)GlcNAc(b1-3)Gal(b1-4)GlcNAc(b1-3)Gal(b1-4)GlcNAc(b1-2)Man(a1-3)[GlcNAc(b1-3)Gal(b1-4)GlcNAc(b1-3)Gal(b1-4)GlcNAc(b1-3)Gal(b1-4)GlcNAc(b1-3)Gal(b1-4)GlcNAc(b1-2)Man(a1-6)]Man(b1-4)GlcNAc(b1-4)[Fuc(a1-6)]GlcNAc
# Outline: as §1
# [15] = molecular target: GlcNAc(b1-3)Gal(b1-4)GlcNAc(b1-3)Gal(b1-4)GlcNAc(b1-3)Gal(b1-4)GlcNAc(b1-3)Gal(b1-4)GlcNAc(b1-2)[GlcNAc(b1-3)Gal(b1-4)GlcNAc(b1-3)Gal(b1-4)GlcNAc(b1-3)Gal(b1-4)GlcNAc(b1-3)Gal(b1-4)GlcNAc(b1-6)]Man(a1-6)[GlcNAc(b1-3)Gal(b1-4)GlcNAc(b1-3)Gal(b1-4)GlcNAc(b1-3)Gal(b1-4)GlcNAc(b1-3)Gal(b1-4)GlcNAc(b1-2)Man(a1-3)]Man(b1-4)GlcNAc(b1-4)[Fuc(a1-6)]GlcNAc
# Outline: as §1
# [16] = molecular target: GlcNAc(b1-3)Gal(b1-4)GlcNAc(b1-3)Gal(b1-4)GlcNAc(b1-3)GalNAc
# Outline: as §1
# [17] = molecular target: GlcNAc(b1-3)Gal(b1-4)GlcNAc(b1-3)GalNAc
# Outline: as §1
# [18] = molecular target: GlcNAc(b1-3)Gal(b1-4)GlcNAc(b1-3)[GlcNAc(b1-3)Gal(b1-4)GlcNAc(b1-3)]GalNAc
# Outline: as §1
# [19] = molecular target: GlcNAc(b1-3)Gal(b1-4)GlcNAc(b1-6)[Gal(b1-3)]GalNAc
# Outline: as §1
# [20] = molecular target: GlcNAc(b1-3)Gal(b1-4)GlcNAc(b1-6)[GlcNAc(b1-3)Gal(b1-3)]GalNAc
# Outline: as §1
# [21] = molecular target: GlcNAc(b1-3)Gal(b1-4)GlcNAc(b1-6)[GlcNAc(b1-3)]Gal(b1-4)GlcNAc
# Outline: as §1
# GlcNAc(b1-3)GalNAc = molecular target: GlcNAc(b1-3)GalNAc
# Outline: as §1
# GlcNAc(b1-3)Man = molecular target: GlcNAc(b1-3)Man
# Outline: as §1
# [22] = molecular target: GlcNAc(b1-3)[GlcNAc(b1-4)][GlcNAc(b1-6)]GlcNAc
# Outline: as §1
# [23] = molecular target: GlcNAc(b1-3)[GlcNAc(b1-6)]Gal(b1-4)GlcNAc
# Outline: as §1
# [24] = molecular target: GlcNAc(b1-3)[GlcNAc(b1-6)]GalNAc
# Outline: as §1
# [25] = molecular target: GlcNAc(b1-4)Gal(b1-4)GlcNAc
# Outline: as §1
# GlcNAc(b1-4)GlcNAc = molecular target: GlcNAc(b1-4)GlcNAc
# Outline: as §1
# [26] = molecular target: GlcNAc(b1-4)GlcNAc(b1-4)GlcNAc
# Outline: as §1
# [27] = molecular target: GlcNAc(b1-4)GlcNAc(b1-4)GlcNAc(b1-4)GlcNAc(b1-4)GlcNAc
# Outline: as §1
# [28] = molecular target: GlcNAc(b1-4)GlcNAc(b1-4)GlcNAc(b1-4)GlcNAc(b1-4)GlcNAc(b1-4)GlcNAc
# Outline: as §1
# [29] = molecular target: GlcNAc(b1-4)[GlcNAc(b1-6)]GalNAc
# Outline: as §1
# [30] = molecular target: GlcNAc(b1-6)Gal(b1-4)GlcNAc
# Outline: as §1
# GlcNAc(b1-6)GalNAc = molecular target: GlcNAc(b1-6)GalNAc
# Outline: as §1
# [31] = molecular target: GlcNAc6S(b1-3)Gal(b1-4)GlcNAc
# Outline: as §1
# Kdn(a2-3)Gal(b1-3)GalNAc = molecular target: Kdn(a2-3)Gal(b1-3)GalNAc
# Outline: as §1
# Kdn(a2-3)Gal(b1-3)GlcNAc = molecular target: Kdn(a2-3)Gal(b1-3)GlcNAc
# Outline: as §1
# Kdn(a2-3)Gal(b1-4)Glc = molecular target: Kdn(a2-3)Gal(b1-4)Glc
# Outline: as §1
# Kdn(a2-3)Gal(b1-4)GlcNAc = molecular target: Kdn(a2-3)Gal(b1-4)GlcNAc
# Outline: as §1
# [32] = molecular target: Kdn(a2-3)Gal(b1-4)[Fuc(a1-3)]GlcNAc
# Outline: as §1
# Kdn(a2-6)Gal(b1-4)GlcNAc = molecular target: Kdn(a2-6)Gal(b1-4)GlcNAc
# Outline: as §1
# [33] = molecular target: Man(a1-2)Man(a1-2)Man(a1-3)Man
# Outline: as §1
# [34] = molecular target: Man(a1-2)Man(a1-2)Man(a1-6)[Man(a1-3)]Man
# Outline: as §1
# Man(a1-2)Man(a1-3)Man = molecular target: Man(a1-2)Man(a1-3)Man
# Outline: as §1
binder,measurement,setting,value
B1,glycan array binding signal (z-score),[1],0.524
same,glycan array binding signal (z-score),GlcNAc(b1-3)Gal(b1-4)Glc,-0.415
same,glycan array binding signal (z-score),[2],-0.615
same,glycan array binding signal (z-score),[3],0.071
same,glycan array binding signal (z-score),[4],1.11
same,glycan array binding signal (z-score),[5],0.752
same,glycan array binding signal (z-score),[6],-1.1
same,glycan array binding signal (z-score),[7],2.72
same,glycan array binding signal (z-score),[8],3.06
same,glycan array binding signal (z-score),[9],0.195
same,glycan array binding signal (z-score),[10],-0.331
same,glycan array binding signal (z-score),[11],1.93
same,glycan array binding signal (z-score),[12],1.27
same,glycan array binding signal (z-score),[13],1.55
same,glycan array binding signal (z-score),[14],0.076
same,glycan array binding signal (z-score),[15],1.72
same,glycan array binding signal (z-score),[16],-0.061
same,glycan array binding signal (z-score),[17],0.584
same,glycan array binding signal (z-score),[18],0.021
same,glycan array binding signal (z-score),[19],-0.776
same,glycan array binding signal (z-score),[20],-0.066
same,glycan array binding signal (z-score),[21],0.458
same,glycan array binding signal (z-score),GlcNAc(b1-3)GalNAc,-0.432
same,glycan array binding signal (z-score),GlcNAc(b1-3)Man,-0.084
same,glycan array binding signal (z-score),[22],-0.974
same,glycan array binding signal (z-score),[23],-0.695
same,glycan array binding signal (z-score),[24],-0.801
same,glycan array binding signal (z-score),[25],-0.582
same,glycan array binding signal (z-score),GlcNAc(b1-4)GlcNAc,-0.331
same,glycan array binding signal (z-score),[26],-0.482
same,glycan array binding signal (z-score),[27],-0.512
same,glycan array binding signal (z-score),[28],-0.624
same,glycan array binding signal (z-score),[29],-0.29
same,glycan array binding signal (z-score),[30],-0.262
same,glycan array binding signal (z-score),GlcNAc(b1-6)GalNAc,-0.151
same,glycan array binding signal (z-score),[31],0.995
same,glycan array binding signal (z-score),Kdn(a2-3)Gal(b1-3)GalNAc,0.076
same,glycan array binding signal (z-score),Kdn(a2-3)Gal(b1-3)GlcNAc,-0.534
same,glycan array binding signal (z-score),Kdn(a2-3)Gal(b1-4)Glc,0.304
same,glycan array binding signal (z-score),Kdn(a2-3)Gal(b1-4)GlcNAc,0.505
same,glycan array binding signal (z-score),[32],0.492
same,glycan array binding signal (z-score),Kdn(a2-6)Gal(b1-4)GlcNAc,0.862
same,glycan array binding signal (z-score),[33],0.687
same,glycan array binding signal (z-score),[34],6.66
same,glycan array binding signal (z-score),Man(a1-2)Man(a1-3)Man,-0.452

# A second format for part of the listing above.
binder	measurement	setting	value
B1	glycan array binding signal (z-score)	[17]	0.584
same	glycan array binding signal (z-score)	[18]	0.021
same	glycan array binding signal (z-score)	[19]	-0.776
same	glycan array binding signal (z-score)	[20]	-0.066
same	glycan array binding signal (z-score)	[21]	0.458
same	glycan array binding signal (z-score)	GlcNAc(b1-3)GalNAc	-0.432
same	glycan array binding signal (z-score)	GlcNAc(b1-3)Man	-0.084
same	glycan array binding signal (z-score)	[22]	-0.974
same	glycan array binding signal (z-score)	[23]	-0.695
same	glycan array binding signal (z-score)	[24]	-0.801
same	glycan array binding signal (z-score)	[25]	-0.582
same	glycan array binding signal (z-score)	GlcNAc(b1-4)GlcNAc	-0.331
same	glycan array binding signal (z-score)	[26]	-0.482
